Publication PMC12808100, “The non-catalytic DNA polymerase ε subunit is an NPF motif recognition protein” (Nature Communications, 2025)

The chains behind the UniProt entries cited, without tags or fusion partners.
UniProt Q9HAW4: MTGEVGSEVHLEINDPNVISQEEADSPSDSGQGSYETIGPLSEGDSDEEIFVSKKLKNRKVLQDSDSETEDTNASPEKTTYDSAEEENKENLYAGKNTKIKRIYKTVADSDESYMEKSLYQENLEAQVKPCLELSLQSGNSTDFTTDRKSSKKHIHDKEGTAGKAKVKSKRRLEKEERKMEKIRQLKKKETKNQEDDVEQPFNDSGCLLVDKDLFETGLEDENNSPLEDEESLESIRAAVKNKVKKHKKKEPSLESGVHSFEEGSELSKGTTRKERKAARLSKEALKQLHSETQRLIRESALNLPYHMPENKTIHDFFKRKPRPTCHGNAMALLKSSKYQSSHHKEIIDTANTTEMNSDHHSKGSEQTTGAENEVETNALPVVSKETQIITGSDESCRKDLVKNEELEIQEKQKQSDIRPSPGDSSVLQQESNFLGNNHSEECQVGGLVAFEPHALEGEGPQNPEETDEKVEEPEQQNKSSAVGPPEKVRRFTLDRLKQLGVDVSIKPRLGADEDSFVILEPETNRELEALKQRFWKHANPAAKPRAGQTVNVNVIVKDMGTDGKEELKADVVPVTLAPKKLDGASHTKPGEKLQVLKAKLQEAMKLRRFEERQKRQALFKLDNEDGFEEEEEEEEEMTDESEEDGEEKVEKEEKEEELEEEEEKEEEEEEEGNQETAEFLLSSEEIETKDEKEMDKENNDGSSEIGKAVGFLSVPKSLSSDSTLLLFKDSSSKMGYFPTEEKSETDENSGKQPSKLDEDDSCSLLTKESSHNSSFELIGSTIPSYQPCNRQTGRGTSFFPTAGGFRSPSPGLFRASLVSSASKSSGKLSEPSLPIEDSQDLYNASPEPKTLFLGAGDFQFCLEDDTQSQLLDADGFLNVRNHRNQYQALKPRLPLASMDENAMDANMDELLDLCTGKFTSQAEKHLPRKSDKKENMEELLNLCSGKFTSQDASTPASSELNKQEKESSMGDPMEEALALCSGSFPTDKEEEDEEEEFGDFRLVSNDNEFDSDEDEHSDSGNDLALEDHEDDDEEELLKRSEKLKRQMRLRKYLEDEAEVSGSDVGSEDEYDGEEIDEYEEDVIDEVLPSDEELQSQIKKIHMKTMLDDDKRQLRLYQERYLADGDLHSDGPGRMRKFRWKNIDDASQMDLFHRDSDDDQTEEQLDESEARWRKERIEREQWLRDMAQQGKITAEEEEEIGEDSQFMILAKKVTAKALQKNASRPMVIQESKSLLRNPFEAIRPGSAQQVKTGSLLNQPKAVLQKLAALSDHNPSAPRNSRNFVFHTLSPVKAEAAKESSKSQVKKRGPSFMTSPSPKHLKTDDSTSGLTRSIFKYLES
UniProt Q9BVC3: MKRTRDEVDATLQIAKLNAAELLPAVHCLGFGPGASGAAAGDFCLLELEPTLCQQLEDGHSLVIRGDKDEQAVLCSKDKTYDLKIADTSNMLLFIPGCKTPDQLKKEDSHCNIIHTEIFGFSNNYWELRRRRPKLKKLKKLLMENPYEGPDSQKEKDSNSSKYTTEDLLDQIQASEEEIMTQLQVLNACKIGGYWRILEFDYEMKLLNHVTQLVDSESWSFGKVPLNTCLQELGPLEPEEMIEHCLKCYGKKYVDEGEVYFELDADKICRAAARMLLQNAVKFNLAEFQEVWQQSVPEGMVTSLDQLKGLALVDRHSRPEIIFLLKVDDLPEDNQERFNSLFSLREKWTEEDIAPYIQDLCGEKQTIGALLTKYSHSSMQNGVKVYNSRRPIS
UniProt Q9UJU2: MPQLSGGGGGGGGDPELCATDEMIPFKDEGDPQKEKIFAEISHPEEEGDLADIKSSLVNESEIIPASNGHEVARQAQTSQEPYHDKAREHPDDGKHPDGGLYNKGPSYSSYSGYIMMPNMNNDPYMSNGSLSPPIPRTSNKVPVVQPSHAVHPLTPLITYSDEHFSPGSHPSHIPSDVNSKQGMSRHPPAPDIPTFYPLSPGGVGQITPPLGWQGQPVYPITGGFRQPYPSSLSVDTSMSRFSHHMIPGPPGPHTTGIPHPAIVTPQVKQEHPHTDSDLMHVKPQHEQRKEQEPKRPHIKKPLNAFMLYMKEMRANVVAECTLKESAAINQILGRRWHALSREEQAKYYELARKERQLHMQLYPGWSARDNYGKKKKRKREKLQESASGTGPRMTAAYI
UniProt P09884: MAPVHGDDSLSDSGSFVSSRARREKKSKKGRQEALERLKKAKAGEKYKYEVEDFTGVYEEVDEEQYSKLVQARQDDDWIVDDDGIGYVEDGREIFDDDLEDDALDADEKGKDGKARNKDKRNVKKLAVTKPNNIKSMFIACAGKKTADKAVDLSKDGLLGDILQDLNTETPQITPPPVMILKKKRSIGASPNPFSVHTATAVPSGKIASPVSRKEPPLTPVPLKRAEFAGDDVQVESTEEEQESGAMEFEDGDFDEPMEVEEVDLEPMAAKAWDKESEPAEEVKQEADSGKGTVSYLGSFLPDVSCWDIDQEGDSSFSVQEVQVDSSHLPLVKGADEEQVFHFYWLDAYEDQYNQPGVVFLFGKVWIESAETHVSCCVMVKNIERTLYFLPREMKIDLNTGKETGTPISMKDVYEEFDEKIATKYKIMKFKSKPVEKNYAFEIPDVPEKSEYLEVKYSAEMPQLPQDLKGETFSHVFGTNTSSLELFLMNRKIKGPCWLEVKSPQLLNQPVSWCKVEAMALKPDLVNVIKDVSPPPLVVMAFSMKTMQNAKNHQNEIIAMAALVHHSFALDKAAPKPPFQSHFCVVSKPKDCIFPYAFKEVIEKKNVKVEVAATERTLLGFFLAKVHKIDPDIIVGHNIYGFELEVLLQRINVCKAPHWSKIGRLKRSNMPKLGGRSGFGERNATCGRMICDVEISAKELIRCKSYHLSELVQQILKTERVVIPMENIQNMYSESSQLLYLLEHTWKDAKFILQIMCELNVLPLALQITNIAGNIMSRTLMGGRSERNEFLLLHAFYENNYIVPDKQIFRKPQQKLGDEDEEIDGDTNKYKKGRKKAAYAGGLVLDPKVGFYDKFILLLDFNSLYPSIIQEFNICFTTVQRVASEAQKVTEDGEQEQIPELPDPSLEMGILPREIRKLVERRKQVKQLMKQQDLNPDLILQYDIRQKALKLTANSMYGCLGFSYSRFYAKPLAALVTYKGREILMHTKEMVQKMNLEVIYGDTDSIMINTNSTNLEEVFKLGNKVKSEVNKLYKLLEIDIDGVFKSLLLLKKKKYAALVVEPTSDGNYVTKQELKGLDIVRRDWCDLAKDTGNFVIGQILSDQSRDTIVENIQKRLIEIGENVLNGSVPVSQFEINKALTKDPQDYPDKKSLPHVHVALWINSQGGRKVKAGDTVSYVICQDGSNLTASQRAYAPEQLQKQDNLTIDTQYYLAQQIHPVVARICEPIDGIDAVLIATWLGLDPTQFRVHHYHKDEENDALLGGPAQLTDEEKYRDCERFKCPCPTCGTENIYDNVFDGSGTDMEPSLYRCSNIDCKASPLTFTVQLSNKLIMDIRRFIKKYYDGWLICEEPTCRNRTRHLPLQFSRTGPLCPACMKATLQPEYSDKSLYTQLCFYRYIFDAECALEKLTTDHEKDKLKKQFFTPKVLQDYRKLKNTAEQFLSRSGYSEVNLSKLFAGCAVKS
UniProt Q9UQ84: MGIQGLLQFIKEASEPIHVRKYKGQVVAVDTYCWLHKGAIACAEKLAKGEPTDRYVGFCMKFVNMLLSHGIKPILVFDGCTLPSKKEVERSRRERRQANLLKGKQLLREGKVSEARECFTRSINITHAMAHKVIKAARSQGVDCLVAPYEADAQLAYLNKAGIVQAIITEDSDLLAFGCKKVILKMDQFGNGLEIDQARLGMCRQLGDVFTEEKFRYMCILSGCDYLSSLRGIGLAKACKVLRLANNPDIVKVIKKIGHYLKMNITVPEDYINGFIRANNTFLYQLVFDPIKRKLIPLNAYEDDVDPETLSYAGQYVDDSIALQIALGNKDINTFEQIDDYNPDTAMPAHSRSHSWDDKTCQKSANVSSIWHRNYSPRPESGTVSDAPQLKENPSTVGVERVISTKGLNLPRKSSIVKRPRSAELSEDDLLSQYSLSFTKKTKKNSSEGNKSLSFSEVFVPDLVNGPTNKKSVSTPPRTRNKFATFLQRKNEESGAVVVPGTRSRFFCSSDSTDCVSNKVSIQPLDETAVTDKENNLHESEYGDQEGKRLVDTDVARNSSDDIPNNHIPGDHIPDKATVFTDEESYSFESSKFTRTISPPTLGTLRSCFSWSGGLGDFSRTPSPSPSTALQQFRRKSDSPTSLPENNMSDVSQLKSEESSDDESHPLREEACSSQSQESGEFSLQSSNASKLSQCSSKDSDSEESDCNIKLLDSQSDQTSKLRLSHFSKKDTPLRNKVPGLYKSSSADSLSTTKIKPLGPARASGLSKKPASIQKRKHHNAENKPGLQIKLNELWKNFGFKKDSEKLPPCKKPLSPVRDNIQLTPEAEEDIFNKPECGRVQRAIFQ
UniProt Q86U70: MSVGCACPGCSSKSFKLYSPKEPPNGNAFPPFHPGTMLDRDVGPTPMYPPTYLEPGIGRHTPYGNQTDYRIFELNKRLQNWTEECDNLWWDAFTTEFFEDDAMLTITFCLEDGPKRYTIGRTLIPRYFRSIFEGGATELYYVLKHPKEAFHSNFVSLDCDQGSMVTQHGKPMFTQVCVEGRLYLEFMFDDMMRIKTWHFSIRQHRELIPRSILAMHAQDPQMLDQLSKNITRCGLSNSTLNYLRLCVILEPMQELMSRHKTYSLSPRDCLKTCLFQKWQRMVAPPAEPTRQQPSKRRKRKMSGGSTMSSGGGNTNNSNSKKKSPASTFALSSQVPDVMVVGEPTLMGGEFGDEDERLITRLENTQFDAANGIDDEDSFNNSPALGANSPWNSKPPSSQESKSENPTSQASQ
UniProt Q9NRF9: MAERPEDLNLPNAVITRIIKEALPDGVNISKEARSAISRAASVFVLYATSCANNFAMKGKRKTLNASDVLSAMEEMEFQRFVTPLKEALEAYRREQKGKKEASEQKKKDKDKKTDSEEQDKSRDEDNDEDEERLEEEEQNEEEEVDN
UniProt O43426: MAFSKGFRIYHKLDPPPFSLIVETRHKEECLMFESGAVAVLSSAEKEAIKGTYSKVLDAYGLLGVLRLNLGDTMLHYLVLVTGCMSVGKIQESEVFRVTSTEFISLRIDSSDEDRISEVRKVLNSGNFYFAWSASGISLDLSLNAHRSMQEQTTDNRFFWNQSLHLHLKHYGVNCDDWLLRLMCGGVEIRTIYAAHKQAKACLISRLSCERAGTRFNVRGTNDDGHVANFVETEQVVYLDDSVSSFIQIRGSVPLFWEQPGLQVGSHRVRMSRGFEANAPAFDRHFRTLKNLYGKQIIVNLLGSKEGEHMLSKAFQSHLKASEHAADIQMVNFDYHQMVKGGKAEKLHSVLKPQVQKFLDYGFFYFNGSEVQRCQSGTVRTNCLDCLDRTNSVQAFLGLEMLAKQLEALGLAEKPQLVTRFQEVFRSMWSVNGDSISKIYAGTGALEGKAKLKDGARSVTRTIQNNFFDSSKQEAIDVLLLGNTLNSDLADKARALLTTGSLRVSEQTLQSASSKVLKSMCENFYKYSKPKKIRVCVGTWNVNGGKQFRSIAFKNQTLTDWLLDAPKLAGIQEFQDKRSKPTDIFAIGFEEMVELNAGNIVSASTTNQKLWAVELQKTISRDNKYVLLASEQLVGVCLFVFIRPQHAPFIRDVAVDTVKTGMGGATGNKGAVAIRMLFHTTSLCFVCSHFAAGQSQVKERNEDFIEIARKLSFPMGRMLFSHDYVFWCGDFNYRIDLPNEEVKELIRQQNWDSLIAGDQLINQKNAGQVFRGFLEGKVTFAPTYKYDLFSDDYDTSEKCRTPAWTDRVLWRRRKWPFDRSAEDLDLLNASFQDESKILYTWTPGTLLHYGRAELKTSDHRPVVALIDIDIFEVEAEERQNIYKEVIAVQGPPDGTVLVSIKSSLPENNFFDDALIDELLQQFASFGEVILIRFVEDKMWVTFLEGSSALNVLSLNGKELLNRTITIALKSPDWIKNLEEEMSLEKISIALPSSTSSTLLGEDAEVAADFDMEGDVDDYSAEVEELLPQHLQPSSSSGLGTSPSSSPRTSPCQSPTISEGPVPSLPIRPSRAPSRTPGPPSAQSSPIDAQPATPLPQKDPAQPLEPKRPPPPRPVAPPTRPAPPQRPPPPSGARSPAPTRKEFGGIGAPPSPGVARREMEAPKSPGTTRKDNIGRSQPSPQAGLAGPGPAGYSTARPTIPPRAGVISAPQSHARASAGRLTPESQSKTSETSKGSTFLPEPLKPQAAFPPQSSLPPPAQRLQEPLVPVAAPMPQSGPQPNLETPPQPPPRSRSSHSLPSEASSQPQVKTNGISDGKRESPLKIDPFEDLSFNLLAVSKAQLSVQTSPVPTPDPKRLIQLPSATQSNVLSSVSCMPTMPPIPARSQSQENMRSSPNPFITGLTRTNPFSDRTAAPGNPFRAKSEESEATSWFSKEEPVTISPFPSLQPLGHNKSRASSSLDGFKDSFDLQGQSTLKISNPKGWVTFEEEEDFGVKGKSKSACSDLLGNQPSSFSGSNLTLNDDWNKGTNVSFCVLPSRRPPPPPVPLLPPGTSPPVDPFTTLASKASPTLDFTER

Experiments:
[1] = molecular target: C-terminally MAC3-tagged POLE2, wild type (human) (UniProt P56282); experiment: proximity labelling; C-terminally MAC3-tagged (ultraID) POLE2 variants in Flp-In T-REx 293 cells, tetracycline 24 h, 50 μM biotin 3 h; Strep-Tactin purification, mass spectrometry, SAINTexpress against GFP control
[2] = molecular target: His6-AviTag-MBP-TEV-POLE2 (human) (UniProt P56282); experiment: native holdup (nHU) with mass spectrometry; single point; biotinylated His6-avi-MBP-POLE2 bait on streptavidin resin at 26 μM, His6-avi-MBP as control; Jurkat extract, 4 °C, 2 h; label-free MS of the supernatant; apparent; only the target purified
[3] = molecular target: C-terminally MAC3-tagged POLE2 E520A (human) (UniProt P56282); experiment: proximity labelling; C-terminally MAC3-tagged (ultraID) POLE2 variants in Flp-In T-REx 293 cells, tetracycline 24 h, 50 μM biotin 3 h; Strep-Tactin purification, mass spectrometry, SAINTexpress against GFP control
[4] = molecular target: C-terminally MAC3-tagged POLE2 S522A (human) (UniProt P56282); experiment: as above
[5] = molecular target: C-terminally MAC3-tagged POLE2 Y311F (human) (UniProt P56282); experiment: as above

Substance | binding [1] | binding [2] | further results
Claspin, endogenous (from UniProt Q9HAW4 1-1339) | binds | – | –
DSCC1, endogenous (from UniProt Q9BVC3 1-393) | binds | – | –
LEF1, endogenous (from UniProt Q9UJU2 1-399) | – | binds | –
POLA1, endogenous (from UniProt P09884 1-1462) | binds | – | –
exonuclease EXO1, endogenous (from UniProt Q9UQ84 1-846) | binds | binds | binding [3]: no binding; binding [4]: no binding; binding [5]: no binding

More lines, main results first:

binding [1] | binding [2] | Substance | further results
– | binds | LDB1, endogenous (from UniProt Q86U70 1-411) | –
binds | – | POLE3, endogenous (from UniProt Q9NRF9 1-147) | –
– | binds | SYNJ1, endogenous full length (from UniProt O43426 1-1573) | –

Results are given in words; binding and its absence hold for the method and conditions named. Binding seen in cells or lysates may run through a third protein. These calls come from enrichment with a bait or labelling near it, and not all partners need be listed. For part of these data: A no says only that the protein was not detected with the bait. Where a sequence is shown, tags or fusion partners need not be part of it.
